PubChem BioAssay AID1053208 | Peter MacCallum Cancer Centre, 2014
Here is a random part of about 17,000 reagents tested. In the full data, 788 (4.7%) were called active. 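Calls rest on z-score classes alone; an extra cut-off of viability at most 70% of control was not applied to them.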 Not all columns of the deposit are shown. No sequences are given here.

Assay: 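Genes whose silencing cuts survival of bone tumour cells only with doxorubicin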 (primary screen)
Cells: mouse osteosarcoma cells, early-passage culture from an engineered mouse model of fibroblastic bone tumour
Reagent: siRNA pool against mouse genes, 40 nM
Timing: about 120 h (48 h before drug, then 72 h with drug)
Challenge: doxorubicin 100 nM for 72 h, roughly 30-40% inhibitory dose
Detection: 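Luminescent ATP signal taken as viability with or without 100 nM doxorubicin for 72 h; mean of two wells set against non-targeting siRNA and turned into robust z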
Reading the numbers: viability z-score with doxorubicin: higher = more viable cells under doxorubicin; viability z-score without drug: higher = more viable cells with knock-down alone; z-score of drug to no-drug ratio: higher = less drug sensitisation by knock-down
Hit rule: 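a pool counts as active when its viability z-score with doxorubicin is -2 or below and its z-score without drug lies between -2 and 2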

The first 2 entries, ahead of the listing:
Target gene	combined z-score class	viability z-score with doxorubicin	viability z-score without drug	z-score of drug to no-drug ratio	Call
Hhatl (hedgehog acyltransferase-like)	no change with or without drug	0.9	0.84	0.45	inactive
Slc35c1	no change with or without drug	-0.22	1.52	-1.12	inactive

The list itself, repeating the preview:
Target gene	combined z-score class	viability z-score with doxorubicin	viability z-score without drug	z-score of drug to no-drug ratio	Call
Hhatl (hedgehog acyltransferase-like)	no change with or without drug	0.9	0.84	0.45	inactive
Slc35c1	no change with or without drug	-0.22	1.52	-1.12	inactive
Selplg (selectin, platelet (p-selectin) ligand)	no change with or without drug	-0.22	0.67	-0.56	inactive
Nuf2 (NUF2, NDC80 kinetochore complex component)	low cell count with doxorubicin only	-3.04	-1.52	-2.25	active
Prol1 (proline rich, lacrimal 1)	no change with or without drug	-1.57	-0.51	-1.24	inactive
Numa1 (nuclear mitotic apparatus protein 1)	no change with or without drug	-0.67	-0.67	-0.11	inactive
Impact (impact, RWD domain protein)	no change with or without drug	0	-0.17	0.22	inactive
Cyp4f18 (cytochrome P450, family 4, subfamily f, polypeptide 18)	no change with or without drug	0.67	-0.34	1.12	inactive
Sppl2b (signal peptide peptidase like 2B)	no change with or without drug	0.79	-0.34	1.24	inactive
Or2p2 (olfactory receptor family 2 subfamily P member 2)	no change with or without drug	0.67	0.17	0.67	inactive
Reln (reelin)	no change with or without drug	0.45	-0.17	0.67	inactive
Rab7b (RAB7B, member RAS oncogene family)	low cell count with doxorubicin only	-2.7	0.84	-3.15	active
Shmt2 (serine hydroxymethyltransferase 2 (mitochondrial))	no change with or without drug	-0.34	0.17	-0.34	inactive
Eaf2 (ELL associated factor 2)	no change with or without drug	1.01	-0.84	1.8	inactive
Pmpca (peptidase (mitochondrial processing) alpha)	no change with or without drug	0.45	-0.34	0.79	inactive
Spink2 (serine peptidase inhibitor, Kazal type 2)	no change with or without drug	0.45	-0.17	0.67	inactive
Ddx21 (DExD box helicase 21)	no change with or without drug	0.45	0.84	0	inactive
Large2 (LARGE xylosyl- and glucuronyltransferase 2)	no change with or without drug	0.34	-0.17	0.56	inactive
Akr7a5 (aldo-keto reductase family 7, member A5)	no change with or without drug	0.22	-0.67	0.79	inactive
Rps20 (ribosomal protein S20)	low cell count with doxorubicin only	-3.37	-1.18	-2.81	active
